Record: PubChem BioAssay AID1259300 (Sanger Institute, 2017)

Assay: 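siRNA screen of kinases and common colorectal cancer mutant genes, alone or with drugs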 (primary screen)
System: HCT15 colorectal cancer cells
Reagents: siRNA pool against human genes
Conditions: anchor drug or DMSO vehicle added 24 h after seeding: BYL719 1 µM, cetuximab 5 µg/ml, trametinib 10 nM; drug doses chosen to barely affect viability alone
Measured: 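Cell viability after knock-down, as fraction of non-targeting pool wells averaged over replicates, plus robust z-score for knock-down alone; synergy score per drug (BYL719 1 µM, cetuximab 5 µg/ml, trametinib 10 nM)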
Scale: viability z-score, siRNA alone: higher = more viable cells after knock-down; viability vs non-targeting, siRNA alone: higher = more viable cells; synergy score with BYL719 and synergy score with cetuximab and synergy score with trametinib: higher = stronger synergy of knock-down with drug
Rule for the call: 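Called active (essential) if viability z-score with knock-down alone falls below -3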
Meaning of the calls: active = essential: knock-down alone lowers viability (z below -3); inactive = no strong viability loss with knock-down alone
The deposit covers 794 reagents; below is a part drawn at random. Of all reagents, 18 (2.3%) got an active call. 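Calls rest on knock-down alone, not drug synergy; depositor treated synergy scores above 0.15 as synergistic; drug doses alone had little viability effect.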 No viability above 1 is reported: the scale is capped. Not given: the amount of reagent, the time to read-out.

| gene | viability z-score, siRNA alone | viability vs non-targeting, siRNA alone | synergy score with BYL719 | synergy score with cetuximab | synergy score with trametinib | call |
| --- | --- | --- | --- | --- | --- | --- |
| BRD2 | 0.625 | 1 | 0.0978 | 0 | 0.0325 | inactive |
| PHKB | 0.071 | 0.96 | 0.0161 | -0.0403 | -0.135 | inactive |
| MINK1 | -0.945 | 0.886 | 0.181 | 0.0393 | -0.073 | inactive |
| RPS6KL1 | 0.625 | 1 | 0.139 | 0 | -0.0746 | inactive |
| STK36 | 0.625 | 1 | 0.113 | 0 | -0.0289 | inactive |
| STYK1 | -0.283 | 0.934 | 0.168 | -0.00542 | 0.112 | inactive |
| EGFR | 0.588 | 0.997 | 0.218 | 0.107 | 0.0731 | inactive |
| PIK3CA | -0.987 | 0.883 | -0.0176 | 0.0197 | -0.0105 | inactive |
| NUP107 | -4.36 | 0.637 | 0.0658 | 0.179 | 0.0108 | active |
| PTEN | -1.54 | 0.843 | -0.0874 | -0.0644 | -0.142 | inactive |
| MAP4K5 | 0.625 | 1 | -0.085 | 0.1 | 0.104 | inactive |
| PRKCE | -0.883 | 0.89 | 0.146 | -0.11 | -0.18 | inactive |
| STK4 | -2.46 | 0.775 | -0.0746 | -0.142 | -0.286 | inactive |
| CRKL | 0.25 | 0.973 | 0.105 | -0.0225 | 0.0605 | inactive |
| PIK3R5 | 0.105 | 0.962 | 0.181 | 0.135 | 0.0256 | inactive |
| DCLK1 | -0.857 | 0.892 | 0.0664 | -0.0377 | -0.151 | inactive |
| SNRK | -1.11 | 0.874 | 0.0837 | -0.0788 | 0.0125 | inactive |
| PKIA | -0.669 | 0.906 | 0.0779 | -0.0383 | -0.133 | inactive |
| RPS6KA5 | -0.491 | 0.919 | 0.256 | 0.062 | 0.0393 | inactive |
| DIS3 | -0.0434 | 0.951 | 0.207 | 0.0802 | 0.0972 | inactive |
| PRKAR1B | -0.425 | 0.924 | 0.248 | 0.0576 | -0.12 | inactive |
| TEC | -1.59 | 0.839 | -0.00817 | -0.156 | -0.177 | inactive |
| WHR1 | 0.571 | 0.996 | 0.121 | 0.0238 | -0.102 | inactive |
| HK3 | 0.424 | 0.985 | 0.163 | -0.00433 | -0.0295 | inactive |
| PKLR | 0.488 | 0.99 | 0.17 | 0.0436 | -0.107 | inactive |
| IPPK | -0.00377 | 0.954 | 0.281 | 0.124 | -0.0692 | inactive |
| PINK1 | 0.625 | 1 | 0.27 | 0.135 | 0.00746 | inactive |
| CDKN1C | -0.23 | 0.938 | 0.162 | -0.0293 | -0.151 | inactive |
| CDK10 | 0.625 | 1 | 0.116 | 0.0532 | -0.0936 | inactive |
| RPS6KA2 | -3.11 | 0.729 | -0.0499 | -0.0802 | -0.0849 | active |
| DUSP21 | -0.971 | 0.884 | 0.109 | -0.00779 | -0.149 | inactive |
| MARK2 | 0.625 | 1 | 0.118 | 0.101 | 0.00701 | inactive |
| PRKAB1 | 0.396 | 0.983 | 0.121 | 0.0605 | 0.00373 | inactive |
| CKM | -0.549 | 0.915 | 0.0928 | 0.0385 | -0.0415 | inactive |
| TWF2 | 0.52 | 0.992 | 0.134 | 0.162 | -0.0425 | inactive |
| RNASEL | 0.625 | 1 | 0.13 | 0.0822 | 0.0394 | inactive |
| CSNK2B | 0.625 | 1 | 0.245 | 0.0307 | 0.0502 | inactive |
| NUP98 | -5.89 | 0.526 | -0.000552 | -0.09 | -0.226 | active |
| CTNNB1 | -1.28 | 0.861 | 0.125 | 0.0578 | -0.088 | inactive |
| DYRK4 | 0.625 | 1 | 0.105 | 0.121 | -0.00707 | inactive |
| DGKA | -0.786 | 0.897 | 0.116 | 0.111 | 0.00988 | inactive |
| NEK5 | 0.625 | 1 | 0.141 | 0 | -0.0984 | inactive |
| CUL1 | 0.546 | 0.994 | 0.281 | 0.0554 | 0.122 | inactive |
| MARK3 | 0.625 | 1 | 0.0776 | 0.0146 | -0.0984 | inactive |
| KHK | 0.625 | 1 | 0.0143 | 0 | -0.0724 | inactive |
| CDKL1 | 0.625 | 1 | 0.229 | 0.0887 | 0.0464 | inactive |
| POLR2B | -5.56 | 0.55 | 0.138 | 0.21 | -0.00322 | active |
| MGA | -1.61 | 0.838 | 0.0184 | -0.0728 | -0.0754 | inactive |
| MAP2K4 | 0.625 | 1 | 0.204 | 0 | -0.0256 | inactive |
| ALDH18A1 | 0.625 | 1 | 0.133 | 0 | -0.0984 | inactive |
| GRK6 | -2.15 | 0.798 | 0.032 | -0.202 | -0.196 | inactive |
| UHMK1 | 0.625 | 1 | 0.0106 | 0.168 | -0.0241 | inactive |
| PDPK1 | 0.625 | 1 | 0.139 | 0.11 | 0.00635 | inactive |
| NME7 | -0.197 | 0.94 | 0.0137 | -0.0161 | -0.152 | inactive |
| GRK4 | -0.663 | 0.906 | 0.0982 | 0.0296 | -0.0555 | inactive |
| CAMK2N1 | -0.437 | 0.923 | 0.124 | 0.0669 | 0.106 | inactive |
| MED24 | 0.625 | 1 | 0.135 | 0.0689 | -0.00417 | inactive |
| DCK | -1.32 | 0.858 | 0.0555 | -0.0242 | 0.108 | inactive |
| SPEG | 0.625 | 1 | 0.0404 | 0 | -0.0669 | inactive |
| FLT4 | 0.625 | 1 | 0.104 | 0.018 | -0.0984 | inactive |
| NR4A2 | -2.04 | 0.806 | 0.155 | -0.14 | -0.0811 | inactive |
| BUB1B | -4.21 | 0.648 | 0.0845 | -0.101 | -0.307 | active |
| FGFR1 | 0.625 | 1 | 0.216 | 0.044 | -0.0439 | inactive |

A few values from the entries so far:
STK36, synergy score with cetuximab = 0
PTEN, call = inactive
Value for PRKAR1B under “synergy score with BYL719”: 0.248
For “synergy score with trametinib”, FGFR1 reads -0.0439
Value for SNRK under “synergy score with BYL719”: 0.0837
PDPK1, synergy score with cetuximab → 0.11
